The exact form of at least one protein or probe is not confirmed. For some assays here: At least one verdict was read from the data and is not stated in words by the source.
How the values were obtained:
[1] = target: MSI2 WT (Homo sapiens) (UniProt Q96DH6); assay: fluorescence polarization; conditions: inhibited by Ro 08-2750 (IC50 2.7 uM, small molecule); C9 spacer; recombinant protein; protein details: GST, Flag; label: Cy3
[2] = target: MSI2 triple mutant F66A,F97A,R100A (Homo sapiens) (UniProt Q96DH6); assay: MST; conditions: MST: 50 mM HEPES, 100 mM NaCl, 0.05% Tween-20, pH 7.4, RT; recombinant protein; protein details: GST, Flag

Protein sequences, listed by entry. Tags and fused reporters are not part of them.
UniProt Q96DH6, whole entry F66A/F97A/R100A: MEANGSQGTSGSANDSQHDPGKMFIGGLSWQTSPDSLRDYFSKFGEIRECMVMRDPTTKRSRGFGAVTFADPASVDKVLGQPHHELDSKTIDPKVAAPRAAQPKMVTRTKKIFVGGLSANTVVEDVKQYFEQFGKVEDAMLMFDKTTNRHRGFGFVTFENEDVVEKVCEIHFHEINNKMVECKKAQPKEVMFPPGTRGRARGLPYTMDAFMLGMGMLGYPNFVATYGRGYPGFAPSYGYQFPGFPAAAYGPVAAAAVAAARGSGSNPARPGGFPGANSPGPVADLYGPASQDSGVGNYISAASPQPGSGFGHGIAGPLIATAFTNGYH

Sequence	binding result [1]	Kd [2] [µM]
GUAGUAGU [8-nt MSI RNA oligo (FP probe)]	binds	
GUAGUAGUAGUAGUA [15-nt MSI RNA oligo]		> 50
